Experimental data published in article PMC9161877.
No constants are given. Whether binding was seen depends on the method and setting. In cells and extracts the contact can be indirect. Some results given as binding are weak or reduced against the parent protein; the word gives no strength.

Protein sequences, listed by entry. Tags and fused reporters are not part of them.
UniProt Q15906: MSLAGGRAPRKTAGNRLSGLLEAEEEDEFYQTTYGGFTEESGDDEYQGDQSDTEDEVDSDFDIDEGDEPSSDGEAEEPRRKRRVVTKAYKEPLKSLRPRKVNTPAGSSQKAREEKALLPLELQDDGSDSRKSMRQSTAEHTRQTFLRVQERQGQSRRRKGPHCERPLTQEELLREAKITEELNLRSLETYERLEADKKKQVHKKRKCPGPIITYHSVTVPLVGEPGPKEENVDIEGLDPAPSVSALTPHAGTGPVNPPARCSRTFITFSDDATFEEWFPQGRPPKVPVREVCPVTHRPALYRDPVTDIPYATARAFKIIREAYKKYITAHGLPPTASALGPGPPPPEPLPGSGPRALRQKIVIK
UniProt Q92993: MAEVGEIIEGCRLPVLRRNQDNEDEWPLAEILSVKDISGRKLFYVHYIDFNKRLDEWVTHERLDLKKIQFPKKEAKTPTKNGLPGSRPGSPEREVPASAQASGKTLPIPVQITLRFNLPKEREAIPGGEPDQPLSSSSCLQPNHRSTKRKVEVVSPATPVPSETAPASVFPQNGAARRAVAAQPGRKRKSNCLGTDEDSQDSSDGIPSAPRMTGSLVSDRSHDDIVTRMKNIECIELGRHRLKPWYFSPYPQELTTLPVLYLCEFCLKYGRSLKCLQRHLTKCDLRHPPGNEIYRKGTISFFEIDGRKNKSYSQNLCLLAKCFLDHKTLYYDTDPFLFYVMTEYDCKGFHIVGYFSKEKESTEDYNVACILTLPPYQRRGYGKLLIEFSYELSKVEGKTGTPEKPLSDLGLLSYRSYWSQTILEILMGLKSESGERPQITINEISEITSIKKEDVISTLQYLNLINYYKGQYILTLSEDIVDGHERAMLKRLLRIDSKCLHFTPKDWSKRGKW

Molecular target: Vacuolar protein sorting-associated protein 72 homolog (VPS72) (human (endogenous in HuH7)) (UniProt Q15906)
Experiment: co-IP; HuH7 cells lysed in RIPA buffer with protease inhibitor cocktail; supernatants incubated with corresponding antibodies overnight at 4°C; protein A + G Agarose 2 h; washed with PBS; western blot

**Q.** How did the binding turn out when “lysine acetyltransferase 5 (KAT5) (from UniProt Q92993 1-513)” was run?
**A.** binds
